Experimental data: paper PMC4855823

The chains behind the UniProt entries cited, without tags or fusion partners.
UniProt Q96SW2: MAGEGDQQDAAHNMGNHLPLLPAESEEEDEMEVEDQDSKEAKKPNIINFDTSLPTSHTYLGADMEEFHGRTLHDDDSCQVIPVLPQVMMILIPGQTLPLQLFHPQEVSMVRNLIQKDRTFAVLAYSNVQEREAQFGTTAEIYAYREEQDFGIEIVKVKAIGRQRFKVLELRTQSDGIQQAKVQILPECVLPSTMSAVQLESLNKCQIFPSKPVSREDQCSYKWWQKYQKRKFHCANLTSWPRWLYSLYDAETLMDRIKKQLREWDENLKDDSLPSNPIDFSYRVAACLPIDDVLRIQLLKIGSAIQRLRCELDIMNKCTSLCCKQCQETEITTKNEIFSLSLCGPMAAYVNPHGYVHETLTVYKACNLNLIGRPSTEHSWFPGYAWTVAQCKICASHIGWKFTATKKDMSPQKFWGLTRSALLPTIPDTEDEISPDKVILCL
UniProt Q13619: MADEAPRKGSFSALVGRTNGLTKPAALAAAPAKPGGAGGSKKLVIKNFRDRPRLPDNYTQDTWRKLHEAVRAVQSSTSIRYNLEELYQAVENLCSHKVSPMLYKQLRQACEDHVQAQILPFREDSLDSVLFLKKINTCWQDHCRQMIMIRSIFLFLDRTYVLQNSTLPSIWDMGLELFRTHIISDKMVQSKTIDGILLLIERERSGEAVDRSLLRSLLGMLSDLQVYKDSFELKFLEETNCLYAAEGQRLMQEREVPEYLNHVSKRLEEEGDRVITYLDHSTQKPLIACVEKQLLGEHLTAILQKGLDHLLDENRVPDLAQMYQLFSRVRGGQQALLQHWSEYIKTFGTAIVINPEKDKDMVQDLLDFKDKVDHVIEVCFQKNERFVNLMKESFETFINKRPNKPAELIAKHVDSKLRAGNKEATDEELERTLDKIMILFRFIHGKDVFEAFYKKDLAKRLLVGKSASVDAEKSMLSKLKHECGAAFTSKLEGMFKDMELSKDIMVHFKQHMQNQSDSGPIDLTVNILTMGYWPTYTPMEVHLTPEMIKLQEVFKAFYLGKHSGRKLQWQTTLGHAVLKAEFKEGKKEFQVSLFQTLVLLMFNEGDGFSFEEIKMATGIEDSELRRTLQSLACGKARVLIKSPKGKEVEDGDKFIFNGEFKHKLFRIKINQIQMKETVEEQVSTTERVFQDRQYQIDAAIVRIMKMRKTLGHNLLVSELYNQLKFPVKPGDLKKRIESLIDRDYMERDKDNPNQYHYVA
UniProt Q13620: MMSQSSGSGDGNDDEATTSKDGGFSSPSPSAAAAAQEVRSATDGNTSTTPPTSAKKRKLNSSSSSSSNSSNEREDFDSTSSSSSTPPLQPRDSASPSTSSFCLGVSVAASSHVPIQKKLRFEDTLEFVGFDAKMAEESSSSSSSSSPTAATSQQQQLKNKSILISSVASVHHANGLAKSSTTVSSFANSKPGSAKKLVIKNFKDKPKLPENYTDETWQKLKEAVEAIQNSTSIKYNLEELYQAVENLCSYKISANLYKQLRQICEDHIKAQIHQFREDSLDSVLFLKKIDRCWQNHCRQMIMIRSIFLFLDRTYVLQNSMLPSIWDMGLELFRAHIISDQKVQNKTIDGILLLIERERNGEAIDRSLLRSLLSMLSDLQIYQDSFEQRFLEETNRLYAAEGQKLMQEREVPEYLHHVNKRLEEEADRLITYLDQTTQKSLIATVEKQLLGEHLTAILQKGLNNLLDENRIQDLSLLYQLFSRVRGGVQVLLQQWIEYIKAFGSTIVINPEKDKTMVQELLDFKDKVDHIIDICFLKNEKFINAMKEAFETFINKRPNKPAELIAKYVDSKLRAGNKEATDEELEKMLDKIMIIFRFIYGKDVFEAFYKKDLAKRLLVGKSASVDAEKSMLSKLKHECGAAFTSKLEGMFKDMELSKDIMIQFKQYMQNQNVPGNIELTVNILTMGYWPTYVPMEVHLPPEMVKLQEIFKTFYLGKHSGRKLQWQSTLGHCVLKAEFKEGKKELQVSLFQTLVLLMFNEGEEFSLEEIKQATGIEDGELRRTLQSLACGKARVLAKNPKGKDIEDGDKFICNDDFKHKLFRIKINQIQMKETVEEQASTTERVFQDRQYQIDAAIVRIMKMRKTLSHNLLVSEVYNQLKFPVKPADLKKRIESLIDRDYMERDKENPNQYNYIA

Biological target: His-tagged cereblon (CRBN) expressed in My5.CRBN.His cells (human) (UniProt Q96SW2)
Experiment: affinity purification with mass spectrometry; His-tagged CRBN held on Ni-NTA agarose beads from My5.CRBN.His lysate (nitrogen cavitation, no detergent; 20 mM Tris/HCl pH 7.9, 500 mM NaCl, 10 % glycerol, 5 mM imidazole, overnight 4 °C; washes 10, 20, 40 mM imidazole; eluted with 100 mM EDTA); SDS-PAGE bands analysed by MS/MS; control My5.LV lysate

Substance	binding
cullin-4A (CUL-4A) (from UniProt Q13619 1-759)	binds
cullin-4B (CUL-4B) (from UniProt Q13620 1-913)	binds

These are yes or no findings as the source states them, for the method shown. Binding seen in cells or lysates may run through a third protein. These calls come from enrichment with a bait or labelling near it, and not all partners need be listed.
